Source: the supplement of paper PMC12819154, “High-throughput peptide-centric local stability assay extends protein–ligand identification to membrane proteins, tissues and bacteria” (Nature Structural & Molecular Biology, 2025)
The other results are listed elsewhere or left out. Small differences around the control level are noise.

The chains behind the UniProt entries cited, without tags or fusion partners. Where a name states a change or a piece, a line headed by the entry shows the natural chain unless it says otherwise.
UniProt Q8VCR7: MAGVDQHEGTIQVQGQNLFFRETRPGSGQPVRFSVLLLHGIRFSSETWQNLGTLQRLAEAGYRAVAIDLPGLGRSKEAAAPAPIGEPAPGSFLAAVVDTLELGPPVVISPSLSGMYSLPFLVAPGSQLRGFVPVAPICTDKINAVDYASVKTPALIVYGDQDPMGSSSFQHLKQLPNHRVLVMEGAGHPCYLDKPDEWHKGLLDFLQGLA
UniProt Q8VED2: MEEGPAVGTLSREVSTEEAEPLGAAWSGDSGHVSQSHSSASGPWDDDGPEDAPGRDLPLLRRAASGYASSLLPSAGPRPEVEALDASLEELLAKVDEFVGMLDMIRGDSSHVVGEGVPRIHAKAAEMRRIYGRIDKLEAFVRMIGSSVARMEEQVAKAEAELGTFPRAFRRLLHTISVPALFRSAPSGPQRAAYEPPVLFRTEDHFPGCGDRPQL
UniProt Q8VE99: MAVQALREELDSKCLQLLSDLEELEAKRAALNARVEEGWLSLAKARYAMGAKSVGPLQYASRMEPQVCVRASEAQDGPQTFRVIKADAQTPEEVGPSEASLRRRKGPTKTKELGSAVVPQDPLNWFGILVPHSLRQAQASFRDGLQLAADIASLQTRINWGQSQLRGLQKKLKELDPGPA
UniProt Q91W50: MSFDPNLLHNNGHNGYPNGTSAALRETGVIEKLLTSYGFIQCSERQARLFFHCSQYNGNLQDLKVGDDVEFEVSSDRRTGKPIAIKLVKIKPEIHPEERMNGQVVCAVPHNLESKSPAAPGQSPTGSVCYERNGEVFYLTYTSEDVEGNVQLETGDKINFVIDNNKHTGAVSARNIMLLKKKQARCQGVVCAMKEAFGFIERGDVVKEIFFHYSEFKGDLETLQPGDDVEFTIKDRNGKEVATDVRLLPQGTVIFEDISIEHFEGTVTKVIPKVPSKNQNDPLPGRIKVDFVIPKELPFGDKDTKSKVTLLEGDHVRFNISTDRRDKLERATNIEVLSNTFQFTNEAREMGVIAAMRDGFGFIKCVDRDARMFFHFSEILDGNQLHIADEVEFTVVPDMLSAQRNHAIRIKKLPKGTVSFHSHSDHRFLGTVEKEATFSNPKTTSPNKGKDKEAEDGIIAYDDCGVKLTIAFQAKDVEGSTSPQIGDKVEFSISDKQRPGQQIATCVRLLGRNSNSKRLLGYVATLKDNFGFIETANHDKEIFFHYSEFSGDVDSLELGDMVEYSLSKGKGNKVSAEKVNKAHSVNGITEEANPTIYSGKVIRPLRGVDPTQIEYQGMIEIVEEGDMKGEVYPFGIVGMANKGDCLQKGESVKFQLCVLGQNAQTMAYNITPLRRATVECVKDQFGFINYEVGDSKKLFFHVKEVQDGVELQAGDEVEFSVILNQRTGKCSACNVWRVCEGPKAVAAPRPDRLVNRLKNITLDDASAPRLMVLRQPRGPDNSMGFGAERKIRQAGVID
UniProt Q920F6: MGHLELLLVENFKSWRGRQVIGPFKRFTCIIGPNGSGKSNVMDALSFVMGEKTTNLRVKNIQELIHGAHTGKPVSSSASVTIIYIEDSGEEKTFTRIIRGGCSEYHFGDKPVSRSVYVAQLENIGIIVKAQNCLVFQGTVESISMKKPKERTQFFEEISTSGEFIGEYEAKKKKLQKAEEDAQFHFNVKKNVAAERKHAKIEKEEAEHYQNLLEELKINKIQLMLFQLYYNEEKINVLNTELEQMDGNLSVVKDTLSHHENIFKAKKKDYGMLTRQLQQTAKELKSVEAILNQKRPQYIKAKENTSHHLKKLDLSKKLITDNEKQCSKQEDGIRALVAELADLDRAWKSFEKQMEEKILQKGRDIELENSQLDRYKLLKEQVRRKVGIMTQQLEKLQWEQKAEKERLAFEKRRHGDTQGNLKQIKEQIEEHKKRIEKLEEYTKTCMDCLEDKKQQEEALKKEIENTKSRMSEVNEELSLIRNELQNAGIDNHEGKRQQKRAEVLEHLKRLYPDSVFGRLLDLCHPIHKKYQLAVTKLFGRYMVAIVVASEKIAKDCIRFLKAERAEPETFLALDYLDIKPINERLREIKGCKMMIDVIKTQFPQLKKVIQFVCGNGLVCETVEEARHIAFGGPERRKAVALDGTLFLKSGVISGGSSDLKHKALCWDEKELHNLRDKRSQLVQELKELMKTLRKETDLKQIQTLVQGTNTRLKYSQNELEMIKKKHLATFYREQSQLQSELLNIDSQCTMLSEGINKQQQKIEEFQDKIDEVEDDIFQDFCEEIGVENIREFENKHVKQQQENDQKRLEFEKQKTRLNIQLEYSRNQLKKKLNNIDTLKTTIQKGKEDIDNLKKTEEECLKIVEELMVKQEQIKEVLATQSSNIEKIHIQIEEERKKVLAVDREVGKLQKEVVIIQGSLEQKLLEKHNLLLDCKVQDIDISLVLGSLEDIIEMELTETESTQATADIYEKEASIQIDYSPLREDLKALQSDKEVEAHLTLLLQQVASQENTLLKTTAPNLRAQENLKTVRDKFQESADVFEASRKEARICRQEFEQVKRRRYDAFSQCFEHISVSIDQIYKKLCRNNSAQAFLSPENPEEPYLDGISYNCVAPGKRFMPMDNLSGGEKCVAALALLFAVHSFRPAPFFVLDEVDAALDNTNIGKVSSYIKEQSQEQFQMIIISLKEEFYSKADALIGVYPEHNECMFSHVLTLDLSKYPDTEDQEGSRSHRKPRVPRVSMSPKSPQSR
UniProt Q91VJ5: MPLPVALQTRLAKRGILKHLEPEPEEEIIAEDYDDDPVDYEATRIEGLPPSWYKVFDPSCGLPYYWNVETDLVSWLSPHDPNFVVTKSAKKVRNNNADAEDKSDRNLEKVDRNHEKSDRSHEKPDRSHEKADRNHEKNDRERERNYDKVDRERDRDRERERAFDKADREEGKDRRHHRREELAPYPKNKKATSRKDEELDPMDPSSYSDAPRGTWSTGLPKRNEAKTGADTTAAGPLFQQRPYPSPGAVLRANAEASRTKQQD
UniProt Q921V5: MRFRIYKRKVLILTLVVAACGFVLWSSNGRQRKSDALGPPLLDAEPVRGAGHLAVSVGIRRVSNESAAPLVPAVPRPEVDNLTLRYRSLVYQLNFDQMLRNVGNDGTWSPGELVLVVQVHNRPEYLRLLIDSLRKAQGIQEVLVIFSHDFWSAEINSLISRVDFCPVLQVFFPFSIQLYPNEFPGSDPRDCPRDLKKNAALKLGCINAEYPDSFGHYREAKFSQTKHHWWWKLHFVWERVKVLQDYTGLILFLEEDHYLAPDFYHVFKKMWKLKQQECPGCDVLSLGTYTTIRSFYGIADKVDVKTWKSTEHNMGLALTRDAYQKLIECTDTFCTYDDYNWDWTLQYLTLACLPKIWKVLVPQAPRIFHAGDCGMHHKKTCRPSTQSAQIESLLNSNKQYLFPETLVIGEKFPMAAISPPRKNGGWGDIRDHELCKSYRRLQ
UniProt Q923X4: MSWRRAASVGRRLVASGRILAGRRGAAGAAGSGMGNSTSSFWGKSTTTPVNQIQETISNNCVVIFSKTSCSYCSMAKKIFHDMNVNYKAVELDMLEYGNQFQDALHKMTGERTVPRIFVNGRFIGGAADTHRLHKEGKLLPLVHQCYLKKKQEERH
UniProt Q8VE88: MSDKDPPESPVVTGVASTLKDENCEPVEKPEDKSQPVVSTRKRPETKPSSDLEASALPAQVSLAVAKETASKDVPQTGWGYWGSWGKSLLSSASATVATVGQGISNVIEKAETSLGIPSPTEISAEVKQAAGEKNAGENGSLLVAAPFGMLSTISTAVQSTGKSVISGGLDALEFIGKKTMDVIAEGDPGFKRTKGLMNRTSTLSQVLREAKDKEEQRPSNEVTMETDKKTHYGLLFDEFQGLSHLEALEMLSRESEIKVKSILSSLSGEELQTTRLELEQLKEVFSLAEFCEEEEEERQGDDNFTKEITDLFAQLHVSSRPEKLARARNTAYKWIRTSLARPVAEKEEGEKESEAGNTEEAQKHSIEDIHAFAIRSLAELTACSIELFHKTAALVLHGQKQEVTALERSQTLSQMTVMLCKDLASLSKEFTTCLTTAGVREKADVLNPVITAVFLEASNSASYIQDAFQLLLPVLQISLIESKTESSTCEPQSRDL
UniProt Q91X52: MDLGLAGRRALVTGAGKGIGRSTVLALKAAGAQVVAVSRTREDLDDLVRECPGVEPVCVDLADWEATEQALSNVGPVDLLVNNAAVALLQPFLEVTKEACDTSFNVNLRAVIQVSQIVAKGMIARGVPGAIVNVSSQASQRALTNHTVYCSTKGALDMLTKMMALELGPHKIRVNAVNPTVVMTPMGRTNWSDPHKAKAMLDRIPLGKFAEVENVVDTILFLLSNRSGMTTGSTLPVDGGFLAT
UniProt Q91VE6: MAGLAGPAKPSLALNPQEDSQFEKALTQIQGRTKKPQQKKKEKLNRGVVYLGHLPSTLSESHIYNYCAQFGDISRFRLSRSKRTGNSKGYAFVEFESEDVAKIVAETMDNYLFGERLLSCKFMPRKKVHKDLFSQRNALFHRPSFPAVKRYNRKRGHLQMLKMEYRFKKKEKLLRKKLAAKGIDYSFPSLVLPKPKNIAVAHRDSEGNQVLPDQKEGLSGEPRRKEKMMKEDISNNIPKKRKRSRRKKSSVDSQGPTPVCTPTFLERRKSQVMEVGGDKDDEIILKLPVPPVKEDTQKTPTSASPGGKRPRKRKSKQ
UniProt Q91WT9: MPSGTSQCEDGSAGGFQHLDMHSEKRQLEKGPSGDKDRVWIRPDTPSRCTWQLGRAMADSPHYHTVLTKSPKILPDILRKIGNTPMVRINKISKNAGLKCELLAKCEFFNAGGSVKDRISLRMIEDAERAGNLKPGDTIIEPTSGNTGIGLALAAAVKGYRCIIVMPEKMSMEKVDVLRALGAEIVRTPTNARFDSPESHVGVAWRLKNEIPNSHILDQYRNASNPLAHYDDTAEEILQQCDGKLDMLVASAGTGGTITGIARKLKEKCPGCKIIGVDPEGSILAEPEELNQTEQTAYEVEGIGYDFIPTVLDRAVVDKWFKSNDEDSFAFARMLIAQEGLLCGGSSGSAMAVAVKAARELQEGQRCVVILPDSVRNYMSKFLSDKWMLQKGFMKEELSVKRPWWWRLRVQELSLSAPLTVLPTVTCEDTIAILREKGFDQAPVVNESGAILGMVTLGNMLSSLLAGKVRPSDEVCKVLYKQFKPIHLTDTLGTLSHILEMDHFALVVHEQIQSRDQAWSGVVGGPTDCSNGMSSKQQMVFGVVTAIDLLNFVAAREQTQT
UniProt Q91Z38: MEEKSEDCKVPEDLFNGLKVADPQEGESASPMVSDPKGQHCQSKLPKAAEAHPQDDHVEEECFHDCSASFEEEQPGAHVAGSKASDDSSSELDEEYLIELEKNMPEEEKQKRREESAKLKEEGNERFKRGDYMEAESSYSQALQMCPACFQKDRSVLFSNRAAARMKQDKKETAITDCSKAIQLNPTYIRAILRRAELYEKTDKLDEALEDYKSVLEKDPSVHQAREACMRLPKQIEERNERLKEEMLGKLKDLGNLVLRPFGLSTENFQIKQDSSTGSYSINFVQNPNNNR
UniProt Q91VH2: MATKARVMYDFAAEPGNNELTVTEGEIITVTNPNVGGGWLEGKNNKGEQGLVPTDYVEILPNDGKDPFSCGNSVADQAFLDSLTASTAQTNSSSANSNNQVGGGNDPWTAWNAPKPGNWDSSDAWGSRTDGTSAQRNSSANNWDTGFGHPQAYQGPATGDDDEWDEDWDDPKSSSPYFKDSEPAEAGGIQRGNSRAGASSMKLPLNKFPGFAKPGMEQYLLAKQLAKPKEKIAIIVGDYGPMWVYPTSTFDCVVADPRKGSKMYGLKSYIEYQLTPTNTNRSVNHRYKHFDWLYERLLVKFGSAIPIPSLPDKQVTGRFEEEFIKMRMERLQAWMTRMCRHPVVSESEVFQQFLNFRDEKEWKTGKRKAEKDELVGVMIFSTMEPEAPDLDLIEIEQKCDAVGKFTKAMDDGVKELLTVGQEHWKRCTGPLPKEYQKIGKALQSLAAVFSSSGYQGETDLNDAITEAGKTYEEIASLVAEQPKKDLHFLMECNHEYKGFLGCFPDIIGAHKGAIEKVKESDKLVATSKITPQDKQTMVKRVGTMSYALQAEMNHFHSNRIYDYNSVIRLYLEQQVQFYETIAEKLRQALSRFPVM
UniProt Q8VEK0: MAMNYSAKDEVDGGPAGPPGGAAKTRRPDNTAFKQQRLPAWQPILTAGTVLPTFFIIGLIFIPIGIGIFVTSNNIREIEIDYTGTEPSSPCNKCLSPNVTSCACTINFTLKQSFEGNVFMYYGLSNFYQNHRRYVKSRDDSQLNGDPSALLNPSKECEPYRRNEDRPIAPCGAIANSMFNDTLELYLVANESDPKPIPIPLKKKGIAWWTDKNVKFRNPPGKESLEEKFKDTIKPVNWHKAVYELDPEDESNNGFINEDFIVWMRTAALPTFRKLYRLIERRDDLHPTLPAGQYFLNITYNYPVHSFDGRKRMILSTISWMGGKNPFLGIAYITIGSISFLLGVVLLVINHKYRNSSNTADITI
UniProt Q91WM6: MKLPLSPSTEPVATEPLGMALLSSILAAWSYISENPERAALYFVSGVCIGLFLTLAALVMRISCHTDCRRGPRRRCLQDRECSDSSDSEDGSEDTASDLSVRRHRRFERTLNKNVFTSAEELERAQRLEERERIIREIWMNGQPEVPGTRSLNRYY

compound: CN[C@@H]1C[C@H]2O[C@@](C)([C@@H]1OC)n1c3ccccc3c3c4c(c5c6ccccc6n2c5c31)C(=O)NC4 [staurosporine]; assay: log2 fold change of pooled soluble protein (PISA), ligand vs vehicle (log2 ratio); higher = more thermally stabilized; conditions: ligand concentration: 20 uM; assay format: PISA pool 52.9/55.5/58.6 C

Q: For UniProt Q922D4, which “log2 fold change of pooled soluble protein” value (“log2 fold change” for short) is on record?
A: The value was 0.111.

Q: With UniProt Q99JB8 as the target, how does the “log2 fold change” value read?
A: Its value is 0.0882.

Q: Which “log2 fold change” value does the source give for UniProt Q925F2 here?
A: The value was 0.00767.

Q: How did the “log2 fold change” value turn out when UniProt Q8VCR7 was run?
A: The value was -0.0181.

Q: UniProt Q91W34 was tested. Which “log2 fold change” value did it give?
A: The value was -0.00634.

Q: UniProt Q8VDG7 was tested. Which “log2 fold change” value did it give?
A: Its value is -0.0132.

Q: How did the “log2 fold change” value turn out when UniProt Q8VED2 was run?
A: The value was 0.431.

Q: For UniProt Q91WK5, which “log2 fold change” value is on record?
A: Its value is 0.0694.

Q: UniProt Q8VE99 was tested. Which “log2 fold change” value did it give?
A: The value was -0.0705.

Q: Which “log2 fold change” value does the source give for UniProt Q91W50 here?
A: Its value is -0.332.

Q: How did the “log2 fold change” value turn out when UniProt Q91YE6 was run?
A: The value was 0.128.

Q: For UniProt Q91XQ0, which “log2 fold change” value is on record?
A: The value was 0.307.

Q: How did the “log2 fold change” value turn out when UniProt Q91V12 was run?
A: The value was -0.0134.

Q: UniProt Q924A2 was tested. Which “log2 fold change” value did it give?
A: The value was -0.0527.

Q: For UniProt Q920F6, which “log2 fold change” value is on record?
A: Its value is -0.0861.

Q: UniProt Q920A5 was tested. Which “log2 fold change” value did it give?
A: The value was -0.0768.

Q: Which “log2 fold change” value does the source give for UniProt Q91XD6 here?
A: Its value is -0.0296.

Q: With UniProt Q91VJ5 as the target, how does the “log2 fold change” value read?
A: Its value is 0.0511.

Q: With UniProt Q921V5 as the target, how does the “log2 fold change” value read?
A: The value was -0.123.

Q: How did the “log2 fold change” value turn out when UniProt Q923X4 was run?
A: Its value is -0.279.

Q: UniProt Q8VE88 was tested. Which “log2 fold change” value did it give?
A: Its value is 0.00516.

Q: With UniProt Q99J09 as the target, how does the “log2 fold change” value read?
A: Its value is -0.395.

Q: UniProt Q923B1 was tested. Which “log2 fold change” value did it give?
A: Its value is -0.38.

Q: Which “log2 fold change” value does the source give for UniProt Q91X52 here?
A: The value was -0.258.

Q: For UniProt Q8VCW8, which “log2 fold change” value is on record?
A: The value was -0.101.

Q: For UniProt Q91VE6, which “log2 fold change” value is on record?
A: Its value is -0.123.

Q: With UniProt Q91WT9 as the target, how does the “log2 fold change” value read?
A: Its value is -0.0387.

Q: For UniProt Q91Z38, which “log2 fold change” value is on record?
A: Its value is 0.0862.

Q: Which “log2 fold change” value does the source give for UniProt Q91VC9 here?
A: Its value is -0.0383.

Q: Which “log2 fold change” value does the source give for UniProt Q8VCT4 here?
A: The value was 0.0152.

Q: Which “log2 fold change” value does the source give for UniProt Q8VDD8 here?
A: The value was 0.0527.

Q: UniProt Q91YT0 was tested. Which “log2 fold change” value did it give?
A: Its value is -0.0908.

Q: Which “log2 fold change” value does the source give for UniProt Q91VH2 here?
A: Its value is -0.0754.

Q: For UniProt Q8VEK0, which “log2 fold change” value is on record?
A: Its value is -0.012.

Q: With UniProt Q923D5 as the target, how does the “log2 fold change” value read?
A: Its value is -0.00382.

Q: Which “log2 fold change” value does the source give for UniProt Q91WM6 here?
A: Its value is 0.032.

Q: How did the “log2 fold change” value turn out when UniProt Q920Q8 was run?
A: The value was -0.0716.
